Measurements reported in publication PMC12904710.
Results are given in words; binding and its absence hold for the method and conditions named. Binding seen in cells or lysates may run through a third protein. For some assays here: Binding can be weak; no strength is given. For some assays here: Tags and fused reporters may be left off the sequences shown.

How the values were obtained:
GST-tagged KPTN (human) = target: T1, GST-tagged KPTN (human) (UniProt Q9Y664); experiment: pull-down; whole cell lysate with HA-FBXO2 incubated with 2 ug purified GST-KPTN at 4 C for 4 hours, glutathione-agarose beads, NP-40 buffer; only the target purified
T1 sequence: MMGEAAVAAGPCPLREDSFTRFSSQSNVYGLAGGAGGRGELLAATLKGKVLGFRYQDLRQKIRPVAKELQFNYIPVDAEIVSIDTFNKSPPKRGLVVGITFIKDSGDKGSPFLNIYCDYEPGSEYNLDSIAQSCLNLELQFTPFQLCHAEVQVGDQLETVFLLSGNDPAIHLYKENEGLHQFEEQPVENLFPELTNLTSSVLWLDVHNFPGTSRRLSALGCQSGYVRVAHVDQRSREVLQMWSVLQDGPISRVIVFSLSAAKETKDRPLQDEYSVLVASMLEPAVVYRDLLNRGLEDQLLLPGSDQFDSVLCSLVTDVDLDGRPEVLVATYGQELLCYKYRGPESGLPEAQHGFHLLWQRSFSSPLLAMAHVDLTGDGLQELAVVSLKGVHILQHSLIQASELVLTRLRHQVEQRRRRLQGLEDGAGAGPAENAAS

[1] = target: Flag-FBXO2 (F-box only protein 2); experiment: co-IP; anti-Flag magnetic beads on whole cell lysates of wild-type or NPRL2-knockout HEK293T cells transduced with Flag-FBXO2 (Figure 2C)

| Molecule | binding (GST-tagged KPTN (human)) | binding [1] |
| --- | --- | --- |
| HA-tagged FBXO2-Y279A/W280A | no binding |  |
| KPTN (endogenous) (protein, UniProt Q9Y664 1-436) MMGEAAVAAGPCPLREDSFTRFSSQSNVYGLAGGAGGRGELLAATLKGKVLGFRYQDLRQKIRPVAKELQFNYIPVDAEIVSIDTFNKSPPKRGLVVGITFIKDSGDKGSPFLNIYCDYEPGSEYNLDSIAQSCLNLELQFTPFQLCHAEVQVGDQLETVFLLSGNDPAIHLYKENEGLHQFEEQPVENLFPELTNLTSSVLWLDVHNFPGTSRRLSALGCQSGYVRVAHVDQRSREVLQMWSVLQDGPISRVIVFSLSAAKETKDRPLQDEYSVLVASMLEPAVVYRDLLNRGLEDQLLLPGSDQFDSVLCSLVTDVDLDGRPEVLVATYGQELLCYKYRGPESGLPEAQHGFHLLWQRSFSSPLLAMAHVDLTGDGLQELAVVSLKGVHILQHSLIQASELVLTRLRHQVEQRRRRLQGLEDGAGAGPAENAAS |  | binds |
